Measurements reported in PMC11066007, “CORVET-specific subunit levels determine the balance between HOPS/CORVET endosomal tethering complexes” (Scientific Reports, 2024).
These are yes or no findings as the source states them, for the method shown. In cells and extracts the contact can be indirect. Some results given as binding are weak or reduced against the parent protein; the word gives no strength. Where a sequence is shown, tags or fusion partners need not be part of it.

T1: VPS8-FLAG (human, UniProt Q8N3P4 1-1428)
T1 construct: VPS8, human, CORVET-specific subunit; DNA region encoding the full-length protein fused with a FLAG tag; also called CORVET-specific VPS8; source: HEK293, stably transfected (pCMV3), in lysate; not shown: FLAG, C-terminal, kept
T1 sequence (looked up): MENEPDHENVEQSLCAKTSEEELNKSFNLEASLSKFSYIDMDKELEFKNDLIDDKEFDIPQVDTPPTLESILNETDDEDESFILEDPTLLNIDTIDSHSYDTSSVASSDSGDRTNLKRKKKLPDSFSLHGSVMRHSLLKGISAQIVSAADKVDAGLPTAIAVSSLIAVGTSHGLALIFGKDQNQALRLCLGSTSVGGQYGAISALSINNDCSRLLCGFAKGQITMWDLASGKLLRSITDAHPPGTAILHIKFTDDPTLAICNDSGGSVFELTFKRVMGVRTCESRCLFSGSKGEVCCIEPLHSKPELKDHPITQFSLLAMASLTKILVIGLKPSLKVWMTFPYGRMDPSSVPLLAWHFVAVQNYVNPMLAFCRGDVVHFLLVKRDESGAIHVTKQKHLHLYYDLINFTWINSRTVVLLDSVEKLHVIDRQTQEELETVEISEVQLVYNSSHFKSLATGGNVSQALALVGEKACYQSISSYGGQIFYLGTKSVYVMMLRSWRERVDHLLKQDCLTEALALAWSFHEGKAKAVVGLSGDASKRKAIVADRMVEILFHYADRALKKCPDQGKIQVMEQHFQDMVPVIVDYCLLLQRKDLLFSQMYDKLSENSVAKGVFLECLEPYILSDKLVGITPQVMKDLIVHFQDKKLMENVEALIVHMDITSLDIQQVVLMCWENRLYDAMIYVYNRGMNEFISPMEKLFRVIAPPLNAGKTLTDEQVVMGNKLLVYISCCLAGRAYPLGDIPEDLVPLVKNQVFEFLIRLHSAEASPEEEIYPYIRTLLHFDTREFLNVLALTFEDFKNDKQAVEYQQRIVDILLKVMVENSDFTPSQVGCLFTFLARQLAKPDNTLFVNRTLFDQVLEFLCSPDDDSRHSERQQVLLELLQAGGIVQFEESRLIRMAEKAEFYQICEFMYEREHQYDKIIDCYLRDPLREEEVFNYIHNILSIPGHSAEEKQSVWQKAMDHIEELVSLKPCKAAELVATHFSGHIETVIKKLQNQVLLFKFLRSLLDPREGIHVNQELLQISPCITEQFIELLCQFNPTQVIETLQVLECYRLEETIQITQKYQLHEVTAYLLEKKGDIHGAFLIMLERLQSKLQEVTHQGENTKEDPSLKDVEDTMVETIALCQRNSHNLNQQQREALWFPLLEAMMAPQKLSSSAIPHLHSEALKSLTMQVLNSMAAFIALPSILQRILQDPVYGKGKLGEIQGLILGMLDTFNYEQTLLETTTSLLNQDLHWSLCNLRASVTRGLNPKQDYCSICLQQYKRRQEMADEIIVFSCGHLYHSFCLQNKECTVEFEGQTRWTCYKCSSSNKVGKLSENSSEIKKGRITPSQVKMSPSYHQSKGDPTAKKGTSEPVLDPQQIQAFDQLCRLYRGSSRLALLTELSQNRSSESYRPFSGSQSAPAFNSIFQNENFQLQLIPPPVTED

T2: Tgfbrap1-FLAG (human, UniProt Q8WUH2 1-860)
T2 construct: Tgfbrap1, human, CORVET-specific subunit; DNA region encoding the full-length protein fused with a FLAG tag; also called CORVET-specific Tgfbrap1; not shown: FLAG, C-terminal, kept
T2 sequence (looked up): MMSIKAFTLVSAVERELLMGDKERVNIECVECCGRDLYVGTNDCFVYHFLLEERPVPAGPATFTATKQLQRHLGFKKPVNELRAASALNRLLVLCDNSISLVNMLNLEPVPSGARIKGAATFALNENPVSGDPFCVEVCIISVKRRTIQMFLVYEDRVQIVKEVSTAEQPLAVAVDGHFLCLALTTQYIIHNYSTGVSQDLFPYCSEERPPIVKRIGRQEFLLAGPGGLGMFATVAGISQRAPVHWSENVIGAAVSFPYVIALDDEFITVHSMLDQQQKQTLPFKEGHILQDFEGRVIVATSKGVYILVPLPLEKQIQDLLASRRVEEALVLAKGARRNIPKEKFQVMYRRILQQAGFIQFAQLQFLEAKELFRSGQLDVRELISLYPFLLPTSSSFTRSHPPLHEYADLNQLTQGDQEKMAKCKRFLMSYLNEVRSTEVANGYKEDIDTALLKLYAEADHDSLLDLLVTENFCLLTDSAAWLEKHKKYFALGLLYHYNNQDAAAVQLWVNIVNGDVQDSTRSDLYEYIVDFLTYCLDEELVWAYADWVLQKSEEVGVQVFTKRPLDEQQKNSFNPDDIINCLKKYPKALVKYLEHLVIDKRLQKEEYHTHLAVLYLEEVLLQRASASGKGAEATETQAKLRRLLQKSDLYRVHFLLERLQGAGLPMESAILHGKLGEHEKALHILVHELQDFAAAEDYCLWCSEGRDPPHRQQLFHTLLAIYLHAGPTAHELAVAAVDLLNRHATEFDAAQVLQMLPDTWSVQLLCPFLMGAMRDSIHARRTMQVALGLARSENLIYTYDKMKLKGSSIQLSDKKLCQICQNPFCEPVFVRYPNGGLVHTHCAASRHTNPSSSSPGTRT


Experiments:
VPS8-FLAG = molecular target: T1, VPS8-FLAG; experiment: co-IP; anti-FLAG beads on total lysates of HEK293 cells stably transfected with a FLAG-tagged specific subunit, with or without transient overexpression of the counterpart subunit (control: pCMV); endogenous VPS11 and VPS18 detected by western blot, densitometry with ImageJ; lysis buffer 50 mM TRIS-HCl pH 7.5, 150 mM NaCl, 1% Triton X-100, 5 mM EDTA; 1.5 h at 4 °C
Tgfbrap1-FLAG [1] = molecular target: T2, Tgfbrap1-FLAG; experiment: as above
Tgfbrap1-FLAG [2] = molecular target: T2, Tgfbrap1-FLAG; experiment: co-IP; anti-FLAG beads on lysates of HEK293 cells overexpressing a FLAG-tagged subunit together with untagged VPS8 or VPS41-HA; eluates analysed by western blot; lysis buffer 50 mM TRIS-HCl pH 7.5, 150 mM NaCl, 1% Triton X-100, 5 mM EDTA; 1.5 h at 4 °C

| binding (VPS8-FLAG) | binding (Tgfbrap1-FLAG [1]) | binding (Tgfbrap1-FLAG [2]) | Binder |
| --- | --- | --- | --- |
| binds | binds |  | VPS11 (natural protein, human (endogenous in HEK293), UniProt Q9H270 1-941, looked up, VPS11, shared class C core subunit of HOPS and CORVET, detected by anti-VPS11 western blot in anti-FLAG precipitates; also called core subunit VPS11; source: endogenous, HEK293 lysate) MAAYLQWRRFVFFDKELVKEPLSNDGAAPGATPASGSAASKFLCLPPGITVCDSGRGSLVFGDMEGQIWFLPRSLQLTGFQAYKLRVTHLYQLKQHNILASVGEDEEGINPLVKIWNLEKRDGGNPLCTRIFPAIPGTEPTVVSCLTVHENLNFMAIGFTDGSVTLNKGDITRDRHSKTQILHKGNYPVTGLAFRQAGKTTHLFVVTTENVQSYIVSGKDYPRVELDTHGCGLRCSALSDPSQDLQFIVAGDECVYLYQPDERGPCFAFEGHKLIAHWFRGYLIIVSRDRKVSPKSEFTSRDSQSSDKQILNIYDLCNKFIAYSTVFEDVVDVLAEWGSLYVLTRDGRVHALQEKDTQTKLEMLFKKNLFEMAINLAKSQHLDSDGLAQIFMQYGDHLYSKGNHDGAVQQYIRTIGKLEPSYVIRKFLDAQRIHNLTAYLQTLHRQSLANADHTTLLLNCYTKLKDSSKLEEFIKKKSESEVHFDVETAIKVLRQAGYYSHALYLAENHAHHEWYLKIQLEDIKNYQEALRYIGKLPFEQAESNMKRYGKILMHHIPEQTTQLLKGLCTDYRPSLEGRSDREAPGCRANSEEFIPIFANNPRELKAFLEHMSEVQPDSPQGIYDTLLELRLQNWAHEKDPQVKEKLHAEAISLLKSGRFCDVFDKALVLCQMHDFQDGVLYLYEQGKLFQQIMHYHMQHEQYRQVISVCERHGEQDPSLWEQALSYFARKEEDCKEYVAAVLKHIENKNLMPPLLVVQTLAHNSTATLSVIRDYLVQKLQKQSQQIAQDELRVRRYREETTRIRQEIQELKASPKIFQKTKCSICNSALELPSVHFLCGHSFHQHCFESYSESDADCPTCLPENRKVMDMIRAQEQKRDLHDQFQHQLKCSNDSFSVIADYFGRGVFNKLTLLTDPPTARLTSSLEAGLQRDLLMHSRRGT |
|  |  | binds | VPS8 (untagged) (protein, UniProt Q8N3P4 1-1428) MENEPDHENVEQSLCAKTSEEELNKSFNLEASLSKFSYIDMDKELEFKNDLIDDKEFDIPQVDTPPTLESILNETDDEDESFILEDPTLLNIDTIDSHSYDTSSVASSDSGDRTNLKRKKKLPDSFSLHGSVMRHSLLKGISAQIVSAADKVDAGLPTAIAVSSLIAVGTSHGLALIFGKDQNQALRLCLGSTSVGGQYGAISALSINNDCSRLLCGFAKGQITMWDLASGKLLRSITDAHPPGTAILHIKFTDDPTLAICNDSGGSVFELTFKRVMGVRTCESRCLFSGSKGEVCCIEPLHSKPELKDHPITQFSLLAMASLTKILVIGLKPSLKVWMTFPYGRMDPSSVPLLAWHFVAVQNYVNPMLAFCRGDVVHFLLVKRDESGAIHVTKQKHLHLYYDLINFTWINSRTVVLLDSVEKLHVIDRQTQEELETVEISEVQLVYNSSHFKSLATGGNVSQALALVGEKACYQSISSYGGQIFYLGTKSVYVMMLRSWRERVDHLLKQDCLTEALALAWSFHEGKAKAVVGLSGDASKRKAIVADRMVEILFHYADRALKKCPDQGKIQVMEQHFQDMVPVIVDYCLLLQRKDLLFSQMYDKLSENSVAKGVFLECLEPYILSDKLVGITPQVMKDLIVHFQDKKLMENVEALIVHMDITSLDIQQVVLMCWENRLYDAMIYVYNRGMNEFISPMEKLFRVIAPPLNAGKTLTDEQVVMGNKLLVYISCCLAGRAYPLGDIPEDLVPLVKNQVFEFLIRLHSAEASPEEEIYPYIRTLLHFDTREFLNVLALTFEDFKNDKQAVEYQQRIVDILLKVMVENSDFTPSQVGCLFTFLARQLAKPDNTLFVNRTLFDQVLEFLCSPDDDSRHSERQQVLLELLQAGGIVQFEESRLIRMAEKAEFYQICEFMYEREHQYDKIIDCYLRDPLREEEVFNYIHNILSIPGHSAEEKQSVWQKAMDHIEELVSLKPCKAAELVATHFSGHIETVIKKLQNQVLLFKFLRSLLDPREGIHVNQELLQISPCITEQFIELLCQFNPTQVIETLQVLECYRLEETIQITQKYQLHEVTAYLLEKKGDIHGAFLIMLERLQSKLQEVTHQGENTKEDPSLKDVEDTMVETIALCQRNSHNLNQQQREALWFPLLEAMMAPQKLSSSAIPHLHSEALKSLTMQVLNSMAAFIALPSILQRILQDPVYGKGKLGEIQGLILGMLDTFNYEQTLLETTTSLLNQDLHWSLCNLRASVTRGLNPKQDYCSICLQQYKRRQEMADEIIVFSCGHLYHSFCLQNKECTVEFEGQTRWTCYKCSSSNKVGKLSENSSEIKKGRITPSQVKMSPSYHQSKGDPTAKKGTSEPVLDPQQIQAFDQLCRLYRGSSRLALLTELSQNRSSESYRPFSGSQSAPAFNSIFQNENFQLQLIPPPVTED |
| binds | binds |  | VPS18 (natural protein, human (endogenous in HEK293), UniProt Q9P253 1-973, looked up, VPS18, shared class C core subunit of HOPS and CORVET, detected by anti-VPS18 western blot in anti-FLAG precipitates; also called core subunit VPS18; source: endogenous, HEK293 lysate) MASILDEYENSLSRSAVLQPGCPSVGIPHSGYVNAQLEKEVPIFTKQRIDFTPSERITSLVVSSNQLCMSLGKDTLLRIDLGKANEPNHVELGRKDDAKVHKMFLDHTGSHLLIALSSTEVLYVNRNGQKVRPLARWKGQLVESVGWNKALGTESSTGPILVGTAQGHIFEAELSASEGGLFGPAPDLYFRPLYVLNEEGGPAPVCSLEAERGPDGRSFVIATTRQRLFQFIGRAAEGAEAQGFSGLFAAYTDHPPPFREFPSNLGYSELAFYTPKLRSAPRAFAWMMGDGVLYGALDCGRPDSLLSEERVWEYPEGVGPGASPPLAIVLTQFHFLLLLADRVEAVCTLTGQVVLRDHFLEKFGPLKHMVKDSSTGQLWAYTERAVFRYHVQREARDVWRTYLDMNRFDLAKEYCRERPDCLDTVLAREADFCFRQRRYLESARCYALTQSYFEEIALKFLEARQEEALAEFLQRKLASLKPAERTQATLLTTWLTELYLSRLGALQGDPEALTLYRETKECFRTFLSSPRHKEWLFASRASIHELLASHGDTEHMVYFAVIMQDYERVVAYHCQHEAYEEALAVLARHRDPQLFYKFSPILIRHIPRQLVDAWIEMGSRLDARQLIPALVNYSQGGEVQQVSQAIRYMEFCVNVLGETEQAIHNYLLSLYARGRPDSLLAYLEQAGASPHRVHYDLKYALRLCAEHGHHRACVHVYKVLELYEEAVDLALQVDVDLAKQCADLPEEDEELRKKLWLKIARHVVQEEEDVQTAMACLASCPLLKIEDVLPFFPDFVTIDHFKEAICSSLKAYNHHIQELQREMEEATASAQRIRRDLQELRGRYGTVEPQDKCATCDFPLLNRPFYLFLCGHMFHADCLLQAVRPGLPAYKQARLEELQRKLGAAPPPAKGSARAKEAEGGAATAGPSREQLKADLDELVAAECVYCGELMIRSIDRPFIDPQRYEEEQLSWL |
